## Results of single-concentration screens

By UniProt entry, the sequences of proteins in these tests, tags left out. Residues count along the entry.
UniProt Q8IDJ8, 1-583: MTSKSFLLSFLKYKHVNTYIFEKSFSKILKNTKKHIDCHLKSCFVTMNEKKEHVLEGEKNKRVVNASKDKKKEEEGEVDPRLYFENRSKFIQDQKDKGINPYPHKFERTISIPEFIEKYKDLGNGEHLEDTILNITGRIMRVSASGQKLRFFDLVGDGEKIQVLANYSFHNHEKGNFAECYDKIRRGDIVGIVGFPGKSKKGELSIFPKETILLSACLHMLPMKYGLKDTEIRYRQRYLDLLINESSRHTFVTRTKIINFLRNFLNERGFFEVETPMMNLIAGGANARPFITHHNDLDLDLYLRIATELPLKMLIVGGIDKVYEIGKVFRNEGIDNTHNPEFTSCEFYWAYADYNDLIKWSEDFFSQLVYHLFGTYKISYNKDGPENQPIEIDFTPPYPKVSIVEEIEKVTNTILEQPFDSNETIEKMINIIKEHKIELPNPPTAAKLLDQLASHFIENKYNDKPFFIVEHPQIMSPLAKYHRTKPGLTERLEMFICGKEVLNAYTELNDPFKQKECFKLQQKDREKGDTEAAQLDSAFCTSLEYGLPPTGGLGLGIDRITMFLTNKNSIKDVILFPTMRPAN
UniProt P9WFT3, whole entry: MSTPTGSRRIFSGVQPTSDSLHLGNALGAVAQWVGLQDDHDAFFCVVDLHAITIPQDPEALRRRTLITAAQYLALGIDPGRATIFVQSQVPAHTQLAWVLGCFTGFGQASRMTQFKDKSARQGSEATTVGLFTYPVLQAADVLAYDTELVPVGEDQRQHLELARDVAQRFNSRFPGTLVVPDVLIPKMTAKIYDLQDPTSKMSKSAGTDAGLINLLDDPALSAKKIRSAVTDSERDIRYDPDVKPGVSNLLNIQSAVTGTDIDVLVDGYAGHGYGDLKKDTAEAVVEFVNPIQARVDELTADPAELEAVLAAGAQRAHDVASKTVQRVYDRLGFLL

From ChEMBL document CHEMBL3988442, “University of Dundee, Small-Polar-MMV Screening Library” (2021).

Each number is a percent effect as filed. How 0% and 100% were set is not recorded. Most values in the screen are low, and negative values occur. This is an unselected part of the compounds tested. Two or more numbers in one place are separate tests of the same structure; such repeats can differ widely.

A: 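Enzyme assay of the cytosolic lysyl-tRNA synthetase in 384-well plates, read by luminescence. Target: Lysine-tRNA ligase, Plasmodium falciparum 3D7 (UniProt Q8IDJ8). Concentration: 30 µM. Direction is inferred from only a few compounds that gave an IC50; most scored high, so higher reads as stronger inhibition. About 69,000 compounds were tested under these conditions; 0.071% (about 49) showed 50% or more at least once.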
B: 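Enzyme assay of tryptophanyl-tRNA synthetase; the read-out is not stated. Target: Tryptophan-tRNA ligase, Mycobacterium tuberculosis (UniProt P9WFT3). Tested at 10 µM. Direction is not recorded; retested compounds ran higher, which suggests that high means inhibition. Of about 65,000 compounds tested this way, about 64 (0.098%) reached 50% or more in at least one test.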
C: 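Cell assay of Leishmania donovani living inside macrophages; the read-out is not stated. Concentration: 30 µM. Higher reads as stronger inhibition (inferred: compounds with an IC50 in retests scored well above the rest). About 69,000 compounds were tested under these conditions; 1.5% (about 1,000) showed 50% or more at least once.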

O=C(O)C(F)(F)F.O=C(O)C(F)(F)F.O=C(O)C(F)(F)F.O=C(O)C(F)(F)F.[H][C@]12CC(Cn3cccn3)N(C)[C@@]1([H])CCN(Cc1ccccn1)C2 (stereo partly shown) gave C: 3.779%. For N#Cc1cccc(NC(=O)N[C@H](CO)Cc2ccc(O)cc2)c1 the result was A: 2.079%; B: -1.727%; C: 25.5%. For Cc1c[nH]c(CN(C)C(=O)[C@]23CNC[C@H]2CNC3)n1 the result was A: 5.048%; B: -2.449%. Cc1ccc(C(=O)N2CC(C(N)=O)O[C@H](C)C2)c(C)c1 (stereo partly shown) gave A: 0.1997%; B: 0.1638%; C: 4.335%.

With CN1Cc2ccccc2CC2(CCN(c3ncccn3)CC2)C1=O the screen gave A: 3.986%; B: 2.616%; C: 3.731%. Result for CN1CCN(c2ccc(C(=O)N3CCCC(c4ncc[nH]4)C3)cc2)CC1 (stereo not shown) was A: 4.646%; B: -5.51%; C: 18.46%. With NC(=O)c1cnn2c1NCC(CNCCCOc1ccccc1F)C2 (stereo not shown) the screen gave A: 0.7398%; B: -0.7862%; C: 26.44%. For COCC1CN(c2ncccn2)Cc2cnn(CC3CC3)c21 (stereo not shown) the result was A: 3.954%; C: 16.21%.

Result for COc1ccc(-c2nc(C3CCNCC3)cc3c2ncn3C)cc1.Cl.Cl was C: -15.32%. With CSCCCNC(=O)C(c1cccc(F)c1)N(C)C (stereo not shown) the screen gave A: 0.8212%; B: 1.522%; C: 5.826%. COc1cccc(NC(=O)CNc2ccc(C(=O)N(C)C)c(Cl)c2)c1 gave A: -2.227%; B: -2.601%; C: 28.32%. With Fc1cnc(N2CCO[C@H]3[C@H](OCC4CCOCC4)CC[C@@H]32)nc1 the screen gave A: 3.421%.

With O=C(CCc1ccsc1)NCC1CCN(Cc2cccs2)CC1 the screen gave A: 0.02462%; B: 2.381%; C: 22.51%. O=C(O)C(F)(F)F.[H][C@]12CCC[C@@H](CNc3ccccn3)[C@@]1([H])CN(c1ncccn1)C2 gave C: 31.52%. COc1ccc(C(=O)NC2CC2)c(OC2CCN(CC3CC3)CC2)c1 gave A: 3.136%; B: -1.698%; C: 24.65%. With Cn1ccc2cc(CC3COCCN(C(=O)c4cccnc4)C3)ccc21 (stereo not shown) the screen gave A: 2.958%; B: 7.52%; C: -14.06%.

With Cc1nnsc1CN(C)C(=O)CCn1cnc2ccccc21 the screen gave A: 2.038%; B: 2.89%; C: 3.573%. O=C([C@H]1C[C@@H]2[C@@H](C1)OCCN2CC1CC1)N1CCCC1 gave A: 2.027%; B: -2.044%. With c1cnc(NC[C@@H]2CCC[C@@H]3CN(Cc4cc[nH]n4)C[C@@H]32)nc1 the screen gave A: 8.49%; B: -4.878%. For Cc1cnn(CC(C)NCc2ccc(OCc3nccn3C)cc2)c1 (stereo not shown) the result was A: 3.599%; B: -3.45%; C: 33.42%.

CCCOc1cc(C)ccc1NC(=O)NCCC(=O)N(C)C read A: 0.4521%; B: -0.07128%; C: 23.34%. For O=C(O)C(F)(F)F.[H][C@@]12CCN(CCOCc3ccccc3)[C@]1([H])CC[C@H](C(=O)NC)O2 the result was C: 45.25%. Result for COc1ccc2c(OCC(=O)NC(C)(C)C)ccnc2c1 was A: 1.353%; B: -2.039%; C: -41.42%. Result for CN(C)CCOc1ccccc1N1CCN(C(=O)c2ccoc2)CC1 was A: -4.357%; B: 0.3027%; C: -1.334%.

Result for Cc1cc(CNC(=O)N2CCN(c3ccccc3)CC2)no1 was A: 1.096%; B: -0.3752%; C: 32.08%. Cc1c[nH]nc1C1CCCCN1C(=O)CC1(O)CCCCC1 (stereo not shown) read A: 1.694%; C: -3.22% and 0.2468%.

For reference, 2 entries once more:

{"smiles": "Fc1cnc(N2CCO[C@H]3[C@H](OCC4CCOCC4)CC[C@@H]32)nc1", "A": 3.421}
{"smiles": "Cc1c[nH]c(CN(C)C(=O)[C@]23CNC[C@H]2CNC3)n1", "A": 5.048, "B": -2.449}